The record followed here is article PMC5891081.

Amino acid sequences for entries named in this document (tags omitted). A change or cut given only in a name is not applied to a line headed by its entry.
UniProt P43351: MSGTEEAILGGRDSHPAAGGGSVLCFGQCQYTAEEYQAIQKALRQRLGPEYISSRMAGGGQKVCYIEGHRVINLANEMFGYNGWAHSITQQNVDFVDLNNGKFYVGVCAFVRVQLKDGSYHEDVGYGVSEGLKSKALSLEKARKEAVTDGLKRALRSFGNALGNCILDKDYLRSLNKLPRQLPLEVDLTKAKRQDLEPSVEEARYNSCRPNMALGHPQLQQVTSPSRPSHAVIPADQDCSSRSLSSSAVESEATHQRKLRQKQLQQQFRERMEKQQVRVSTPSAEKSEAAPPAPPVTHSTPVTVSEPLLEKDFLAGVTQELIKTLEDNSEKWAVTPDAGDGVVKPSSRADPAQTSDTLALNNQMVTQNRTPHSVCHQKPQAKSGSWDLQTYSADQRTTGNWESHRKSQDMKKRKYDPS

For at least one entry, the source does not settle the construct or the ends of the probe.

This data set concerns the target RAD52 11xR (Homo sapiens) (UniProt P43351). The data set can be described thus: EMSA. Particulars: 10 uM nucleotides DNA, ssDNA binding similar to wild type; 16 uL reactions, Cy5-50-mer 10 uM in nucleotides; 5X buffer contains 0.1 M HEPES-NaOH pH 7.5 (20 mM final if 1X); remaining components; recombinant protein; protein details: C-terminal His6; label: 5'-Cy5; single-stranded DNA.

Consider “TCGCCATCAACTAACGATTCTGTCAAAAACTGACGCGTTGGATGAGGAGA [FX174-50-1 (oligo 1)]”, for which the binding result is “binds”.
